{"source": "PubChem BioAssay AID1224830 (NIAID, 2016)", "purpose": "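Regulators of TLR4 signalling towards TNF-alpha in macrophage-like cells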 (primary screen)", "cell system": "human THP-1 monocytic leukaemia cells, TNF dual-luciferase reporter clone, PMA-differentiated to macrophage-like cells", "reagent": "siRNA pool against human genes, 50 nM", "time to read-out": "LPS for 4 h, given about 3 days after siRNA transfection", "conditions": "bacterial LPS (TLR4 ligand), 10 ng/ml", "measured": "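TNF firefly reporter luminescence divided by renilla, normalised to the plate median, then turned into a robust z-score for each replicate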", "direction": "TNF reporter robust z-score: higher = stronger TNF reporter response to LPS", "active means": "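Each well counts as active if its z-score is over 2.8 or under -1.5; controls are left without a call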", "note": "Here is an unselected part of about 18,000 reagents tested. About 2,900 of all reagents (16%) count as active. 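Calls are made per well; low scores hint the gene aids the LPS response, high scores that it dampens it.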 Unmarked entries are inactive. Repeated entries: four replicate wells of each siRNA pool. Reagent sequences are not shown."}
{"Gene":"ORC5","TNF reporter robust z-score":"3.38 (active)"}
{"Gene":"ORC5","TNF reporter robust z-score":"3.22 (active)"}
{"Gene":"ORC5","TNF reporter robust z-score":0.05}
{"Gene":"ORC5","TNF reporter robust z-score":0.85}
{"Gene":"OR4A16","TNF reporter robust z-score":0}
{"Gene":"OR4A16","TNF reporter robust z-score":0.85}
{"Gene":"OR4A16","TNF reporter robust z-score":0.01}
{"Gene":"OR4A16","TNF reporter robust z-score":0.4}
{"Gene":"RGS21","TNF reporter robust z-score":-0.28}
{"Gene":"RGS21","TNF reporter robust z-score":-0.05}
{"Gene":"RGS21","TNF reporter robust z-score":-0.68}
{"Gene":"RGS21","TNF reporter robust z-score":-0.67}
{"Gene":"TSPAN10","TNF reporter robust z-score":0.61}
{"Gene":"TSPAN10","TNF reporter robust z-score":0.47}
{"Gene":"TSPAN10","TNF reporter robust z-score":-0.48}
{"Gene":"TSPAN10","TNF reporter robust z-score":-0.3}
{"Gene":"ZNF609","TNF reporter robust z-score":-0.84}
{"Gene":"ZNF609","TNF reporter robust z-score":-0.98}
{"Gene":"ZNF609","TNF reporter robust z-score":-0.73}
{"Gene":"ZNF609","TNF reporter robust z-score":-1.17}
{"Gene":"RBM4","TNF reporter robust z-score":0.79}
{"Gene":"RBM4","TNF reporter robust z-score":-0.07}
{"Gene":"RBM4","TNF reporter robust z-score":0.37}
{"Gene":"RBM4","TNF reporter robust z-score":-0.71}
{"Gene":"NOL4","TNF reporter robust z-score":2.33}
{"Gene":"NOL4","TNF reporter robust z-score":1.67}
{"Gene":"NOL4","TNF reporter robust z-score":0.81}
{"Gene":"NOL4","TNF reporter robust z-score":"3.03 (active)"}
{"Gene":"MLPH","TNF reporter robust z-score":-0.24}
{"Gene":"MLPH","TNF reporter robust z-score":-0.4}
{"Gene":"MLPH","TNF reporter robust z-score":0.48}
{"Gene":"MLPH","TNF reporter robust z-score":-0.38}
{"Gene":"ABHD11","TNF reporter robust z-score":-1.11}
{"Gene":"ABHD11","TNF reporter robust z-score":-0.88}
{"Gene":"ABHD11","TNF reporter robust z-score":-0.92}
{"Gene":"ABHD11","TNF reporter robust z-score":0.03}
{"Gene":"UMODL1","TNF reporter robust z-score":-0.99}
{"Gene":"UMODL1","TNF reporter robust z-score":-0.77}
{"Gene":"UMODL1","TNF reporter robust z-score":-0.6}
{"Gene":"UMODL1","TNF reporter robust z-score":-0.98}
{"Gene":"ESD","TNF reporter robust z-score":0.1}
{"Gene":"ESD","TNF reporter robust z-score":-0.09}
{"Gene":"ESD","TNF reporter robust z-score":-0.57}
{"Gene":"ESD","TNF reporter robust z-score":0.77}
{"Gene":"OR10K1","TNF reporter robust z-score":-0.37}
{"Gene":"OR10K1","TNF reporter robust z-score":0.55}
{"Gene":"OR10K1","TNF reporter robust z-score":0.46}
{"Gene":"OR10K1","TNF reporter robust z-score":1.23}
{"Gene":"CTNNBL1","TNF reporter robust z-score":0.52}
{"Gene":"CTNNBL1","TNF reporter robust z-score":2.18}
{"Gene":"CTNNBL1","TNF reporter robust z-score":0.48}
{"Gene":"CTNNBL1","TNF reporter robust z-score":0.37}
{"Gene":"RETN","TNF reporter robust z-score":0.3}
{"Gene":"RETN","TNF reporter robust z-score":2.26}
{"Gene":"RETN","TNF reporter robust z-score":1.2}
{"Gene":"RETN","TNF reporter robust z-score":2.41}
{"Gene":"RFX1","TNF reporter robust z-score":-0.17}
{"Gene":"RFX1","TNF reporter robust z-score":0.63}
{"Gene":"RFX1","TNF reporter robust z-score":0.57}
{"Gene":"RFX1","TNF reporter robust z-score":0.72}

Reprinted from the entries so far (4 entries):
{"Gene":"ZNF609","TNF reporter robust z-score":-1.17}
{"Gene":"RBM4","TNF reporter robust z-score":0.79}
{"Gene":"RBM4","TNF reporter robust z-score":-0.07}
{"Gene":"RBM4","TNF reporter robust z-score":0.37}
